This is an account of results in doi:10.1101/558387.

For assay [1], the target named is PRH1 fused to the GAL4 DNA binding domain (pGBKT7-PRH1) (Arabidopsis thaliana) (UniProt Q39186). The assay is described as follows: two-hybrid.
Assay [2] has as its target C-terminal Myc-tagged full length PRH1 (PRH1-Myc) (Arabidopsis thaliana). In words: co-IP.
Assay [3] has as its target PRH1 fused to the N-terminal half of YFP (PRH1-YFP^N) (Arabidopsis thaliana). The assay is described as follows: split reporter.

No constants are given. Whether binding was seen depends on the method and setting. Binding calls can cover weak binding; strength is not graded here. Where a sequence is shown, tags or fusion partners need not be part of it. For part of these data: Binding seen in cells or lysates may run through a third protein.

B1: GATA23 fused to the GAL4 activation domain (pGADT7-GATA23) (protein, UniProt Q8LC59 1-120)
chain: MDPRKLLSCSSSYVSVRMKEEKGTIRCCSECKTTKTPMWRGGPTGPKSLCNACGIRHRKQRRSELLGIHIIRSHKSLASKKINLLSSSHGGVAVKKRRSLKEEEQAALCLLLLSCSSVLA
B1: the binding result in assay [1] is “binds”.

B2: C-terminal GFP-tagged full length GATA23 (GATA23-GFP) (protein, UniProt Q8LC59 1-120)
chain: B1 chain
For B2, in assay [2], the binding result was “binds”.

B3: GATA23 fused to the C-terminal half of YFP (GATA23-YFP^C) (protein, UniProt Q8LC59 1-120)
chain: B1 chain
For the molecule B3, the binding result in assay [3] is “binds”.
